# Laboratory results taken from PubChem BioAssay AID922 (National Center for Advancing Translational Sciences (NCATS), 2007).
# The shares of active, inactive and inconclusive entries below differ from those in the screen. Potencies beside an inconclusive call are fits to weak or partial responses and may not hold up. “Side channel” marks fits to a control or component signal instead of the main read-out. Activity calls are given as the source filed them. Calls follow the shape of the dose curve; as a rule, active = well fitted inhibition curve with a large enough effect in the signal ratio, with a control signal flat; inconclusive = small, poorly fitted or top-dose-only effect, or effect the other way; inactive = flat fitted curve, though single readings scatter; the % refers to the signal ratio.
# Test: Confirmation Concentration-Response Assay for Identification of Small Molecule Antagonists of Stat Signaling Pathway
# Conditions: SIE-bla cells, IL-6 stimulated, beta-lactamase ratio, 5 h; activity change, negative = inhibition: at 38.3 µM (top of the series)
# From the text: NIH Molecular Libraries Screening Centers Network [MLSCN] NIH Chemical Genomics Center [NCGC] MLSCN Grant: None NCGC Assay Overview: This assay is a retest of actives identified from the Stat signaling pathway assay (PubChem AID 446). The Stat assay is cell-based and measures Interleukin 6 (IL-6) mediated modulation of a beta-lactamase reporter gene controlled by a STAT inducible element (SIE-bla cells, Invitrogen). IL-6 is a cytokine that signals via the JAK/STAT pathway and is implicated in cancer and inflammation. SIE-bla cells are induced by IL-6 at 40 pM EC50 and inhibited by the pan JAK inhibitor, 2-(1,1-Dimethylethyl)-9-fluoro-3,6-dihydro-7H-benz[h]-imidaz[4,5-f]isoquinolin-7-one, at approximately 10 nM IC50. Plated cells were incubated overnight and on the following day, stimulated with 40 pM IL-6 for 5 hrs. The assay was stimulated with an EC50 of IL-6 to retest inhibitors of STAT signaling.
# NCGC Assay Protocol Summary: Cells were trypsinized, washed in assay medium (AM, OPTI MEM with 0.5% fetal bovine serum, 0.1 mM nonessential amino acids, 1 mM sodium pyruvate, 10mM HEPES pH 7.3, 100U/ml penicillin, and 100 ug/ml streptomycin) and suspended at […] in AM. Approximately 2500 cells in 5 uL/well was dispensed into 1536-well plates and the cells were incubated overnight at 37 C. 23 nL of compound were delivered by a pin tool and 1 uL of IL-6 (40 pM final concentration in AM) was added. After plates were incubated at 37 C for 5 hrs, 1uL of detector mix (LiveBLAzerTM, Invitrogen) was added, the plates incubated at room temperature for 2.5 hrs, and fluorescence intensity at 460 and 530 nm emissions was measured at 405 nm excitation by an Envision (Perkin Elmer).
Structure (SMILES),Potency,"activity change, negative = inhibition"
Cc1ccccc1CNc1ncnc2c1ncn2[C@@H]1O[C@@H](CO)[C@H](O)[C@@H]1O,"inconclusive: 5.01 µM [activator, full curve, poor fit]",
COc1ccccc1C(=O)NC(=Nc1nc2ccccc2o1)NC(=O)c1ccccc1OC,"inconclusive: 15.8 µM [cytotoxic, side channel, partial curve, poor fit]",
Cc1csc(NC(=O)CSc2nsc(SCC(=O)Nc3nc(C)cs3)c2C#N)n1,"inconclusive: 7.94 µM [inhibitor, full curve, poor fit]",
Cc1ccccc1-c1nn2c(-c3ccccc3)nnc2s1,"inconclusive: 15.8 µM [activator, partial curve, poor fit]",
CC1CCN(c2oc(-c3ccccc3Cl)nc2C#N)CC1,"inconclusive: 6.31 µM [activator, full curve]",
CC(C)(C)C1CCC2(CC1)C(C#N)=C(SCC(=O)Nc1ccccc1)NC(=O)C2C#N (stereo not given),"inconclusive: 15.8 µM [inhibitor, full curve, poor fit]",
CCOC(=O)N1CCC(=C2c3ccc(Cl)cc3CCc3cccnc32)CC1,,inconclusive: -42.2% [cytotoxic]
CN(C)c1ccc(-c2nn3c(-c4ccc(Cl)cc4)nnc3s2)cc1,"inconclusive: 3.16 µM [activator, full curve]",
Oc1c(I)cc(I)c2cccnc12,"inconclusive: 31.6 µM [inhibitor, single point]",
COc1c2c(nc3ccccc13)O[C@@H]([C@@](C)(O)CO)C2,"inconclusive: 12.6 µM [activator, partial curve, poor fit]",
COc1ccc2c(c1)c1c(C)c3cnccc3c(C)c1n2CCCN,"inconclusive: 1 µM [side channel, falling, full curve, poor fit]",
CCN(CC)CCNc1ccc(CO)c2sc3ccccc3c(=O)c12,"inconclusive: 31.6 µM [side channel, partial curve, poor fit]",
C=C(Br)CN1CCN(CC(=C)Br)CC1,"inconclusive: 20 µM [activator, partial curve, poor fit]",
CC1(C)Cc2c(C#N)c(N3CCN(C(=O)c4ccco4)CC3)nc(Cc3ccccc3)c2CO1,"inconclusive: 20 µM [inhibitor, partial curve, poor fit]",
OCc1ccncc1.OCc1ccncc1.[Cl][Pt]([Cl])([Cl])[Cl],active: 10 µM,
Fc1ccc2[nH]c3c(N4CCN(Cc5ccc6c(c5)OCO6)CC4)ncnc3c2c1,"inconclusive: 15.8 µM [inhibitor, partial curve, poor fit]",
Clc1ccc(-c2nnc3sc(Cc4cccs4)nn23)cc1,"inconclusive: 12.6 µM [activator, partial curve, poor fit]",
CC1(C)Cc2c(C#N)c(N3CCN(C(=O)c4ccco4)CC3)nc(-c3ccco3)c2CS1,"inconclusive: 25.1 µM [activator, partial curve, poor fit]",
COc1cc(/C=C\C(=O)N2CCCCC2=O)cc(OC)c1OC,active: 12.6 µM,
Cc1cc(SCC(=O)c2ccc(Br)cc2)cc(C)[o+]1,"inconclusive: 25.1 µM [inhibitor, partial curve, poor fit]",

Structure (SMILES),Potency,"activity change, negative = inhibition"
CC(C)(C)c1nnc2sc(SCC(=O)c3ccccc3)nn2c1=O,"inconclusive: 12.6 µM [inhibitor, full curve, poor fit]",
COc1cc(NS(C)(=O)=O)ccc1Nc1c2ccccc2nc2ccccc12,"inconclusive: 25.1 µM [activator, partial curve]",
CCN(CC)CCNC(=O)c1cc(S(C)(=O)=O)ccc1OC,inactive,
CC(=O)[C@@]1(O)Cc2c(O)c3c(c(O)c2[C@H](O[C@H]2C[C@H](N)[C@H](O)[C@H](C)O2)C1)C(=O)c1ccccc1C3=O,"inconclusive: 0.794 µM [side channel, falling, full curve, poor fit]",
COc1cccc2c1C(=O)c1c(O)c3c(c(O)c1C2=O)C[C@@](O)(C(=O)CO)C[C@@H]3O[C@H]1C[C@H](N)[C@H](O)[C@H](C)O1,"inconclusive: 3.98 µM [activator, partial curve]",
O=C1C(SCCO)=C(SCCO)C(=O)c2ccccc21,active: 6.31 µM,
CCOC(=O)c1[nH]c2cc3c(cc2c1NC(=O)CN1CCc2ccccc2C1)OCO3,active: 15.8 µM,
CCCCCCc1cc2cc(-c3nnc(-c4ccccc4O)o3)c(=O)oc2cc1O,"inconclusive: 3.16 µM [fluorescent, side channel, full curve]",
COc1cccc2c1[C@H](CO)N1[C@H](C#N)[C@@H]3C[C@H](C(=O)O)[C@@H]([C@@H]1C2)N3C,active: 10 µM,
O=C(Nc1ccc(N2CCN(C(=O)c3ccccc3)CC2)c(Cl)c1)c1ccc(Br)o1,active: 10 µM,
COc1ccc(C[C@@H]2C(=O)N[C@H](C)C(=O)N(C)[C@@H]3Cc4ccc(cc4)Oc4cc(ccc4O)C[C@H](C(=O)N[C@@H](C)C(=O)N[C@H](C)C(=O)N2C)N(C)C3=O)cc1,active: 0.199 µM,
CCc1cc2c(=O)c(-c3nc4ccccc4[nH]3)coc2cc1OC(=O)N1CCOCC1,"inconclusive: 12.6 µM [activator, full curve, poor fit]",
Cn1c(N2CCN(c3ccccn3)CC2)nc2c1c(=O)n(Cc1ccc(Cl)cc1)c(=O)n2C,"inconclusive: 7.94 µM [inhibitor, full curve]",
Cc1ccc(CNC(=O)c2cc3c(=O)n4ccccc4nc3n(CC3CCCO3)c2=N)cc1 (stereo not given),"inconclusive: 10 µM [activator, partial curve]",
CCOC(=O)CCc1c(C)c(C#N)c2[nH]c3ccccc3n2c1=O,"inconclusive: 10 µM [inhibitor, full curve, poor fit]",
N=C(N)SCc1cccc2c(=O)cc(-c3ccccc3)oc12,"inconclusive: 12.6 µM [rising, full curve]",
O=c1c(O)c(-c2ccc(O)cc2)oc2cc(O)ccc12,,inconclusive: -19.9%
CCC(=O)Oc1oc(-c2ccccc2)nc1C=Nc1ccccc1OC,"inconclusive: 15.8 µM [inhibitor, partial curve, poor fit]",
C[n+]1cc2c3c(ccc2c2ccc4cc5c(cc4c21)OCO5)OCO3,"inconclusive: 7.94 µM [cytotoxic, side channel, full curve, poor fit]",
CC(=O)Oc1ccc(C(c2ccc(OC(C)=O)cc2)c2ccccn2)cc1,"inconclusive: 0.398 µM [activator, full curve]",

# Part of the list above, as tab-separated lines:
Structure (SMILES)	Potency	activity change, negative = inhibition
Cc1ccccc1CNc1ncnc2c1ncn2[C@@H]1O[C@@H](CO)[C@H](O)[C@@H]1O	inconclusive: 5.01 µM [activator, full curve, poor fit]	
COc1ccccc1C(=O)NC(=Nc1nc2ccccc2o1)NC(=O)c1ccccc1OC	inconclusive: 15.8 µM [cytotoxic, side channel, partial curve, poor fit]	
